Experimental data as given in paper PMC3128601.
These are yes or no findings as the source states them, for the method shown. In cells and extracts the contact can be indirect. Some results given as binding are weak or reduced against the parent protein; the word gives no strength.

Biological target: T1, SGIP1 (endogenous, mouse cerebellum) (mouse (endogenous in cerebellum)) (UniProt Q8VD37)
T1 sequence: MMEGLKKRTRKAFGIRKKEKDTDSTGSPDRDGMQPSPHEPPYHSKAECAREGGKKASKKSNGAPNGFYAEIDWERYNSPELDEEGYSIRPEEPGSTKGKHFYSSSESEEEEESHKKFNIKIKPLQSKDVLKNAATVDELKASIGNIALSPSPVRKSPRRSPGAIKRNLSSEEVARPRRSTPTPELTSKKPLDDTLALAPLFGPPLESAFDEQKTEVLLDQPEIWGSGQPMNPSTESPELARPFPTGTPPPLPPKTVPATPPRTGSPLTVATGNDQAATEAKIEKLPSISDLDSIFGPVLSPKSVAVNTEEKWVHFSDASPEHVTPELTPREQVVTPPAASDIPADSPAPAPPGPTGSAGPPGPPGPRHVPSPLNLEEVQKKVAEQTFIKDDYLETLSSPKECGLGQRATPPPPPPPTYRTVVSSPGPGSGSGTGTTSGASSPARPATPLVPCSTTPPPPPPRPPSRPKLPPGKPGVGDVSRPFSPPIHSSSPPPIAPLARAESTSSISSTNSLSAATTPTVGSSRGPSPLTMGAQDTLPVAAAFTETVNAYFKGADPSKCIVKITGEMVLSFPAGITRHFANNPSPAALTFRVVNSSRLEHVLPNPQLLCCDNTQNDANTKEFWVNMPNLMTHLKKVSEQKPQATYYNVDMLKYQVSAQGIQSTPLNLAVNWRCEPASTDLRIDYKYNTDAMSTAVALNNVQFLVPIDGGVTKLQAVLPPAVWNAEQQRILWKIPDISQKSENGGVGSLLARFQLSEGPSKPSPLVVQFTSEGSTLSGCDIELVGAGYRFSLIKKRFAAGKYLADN
Assay: co-IP; wild-type mouse cerebellum homogenate in RIPA buffer; immunoprecipitation with anti-SGIP1 antibodies (anti-His-tag antibodies as negative control), Western blot with anti-calnexin

binding: binds
B1: calnexin (endogenous) (protein, UniProt P35564 21-591)
chain: HDGHDDDAIDIEDDLDDVIEEVEDSKSKSDASTPPSPKVTYKAPVPTGEVYFADSFDRGSLSGWILSKAKKDDTDDEIAKYDGKWEVDEMKETKLPGDKGLVLMSRAKHHAISAKLNKPFLFDTKPLIVQYEVNFQNGIECGGAYVKLLSKTAELSLDQFHDKTPYTIMFGPDKCGEDYKLHFIFRHKNPKTGVYEEKHAKRPDADLKTYFTDKKTHLYTLILNPDNSFEILVDQSVVNSGNLLNDMTPPVNPSREIEDPEDRKPEDWDERPKIADPDAVKPDDWDEDAPSKIPDEEATKPEGWLDDEPEYIPDPDAEKPEDWDEDMDGEWEAPQIANPKCESAPGCGVWQRPMIDNPNYKGKWKPPMIDNPNYQGIWKPRKIPNPDFFEDLEPFKMTPFSAIGLELWSMTSDIFFDNFIISGDRRVVDDWANDGWGLKKAADGAAEPGVVLQMLEAAEERPWLWVVYILTVALPVFLVILFCCSGKKQSNAMEYKKTDAPQPDVKDEEGKEEEKNKRDEEEEEEKLEEKQKSDAEEDGVTGSQDEEDSKPKAEEDEILNRSPRNRKPRRE
